{"source": "patent US20140127133A1", "about": "“METHOD FOR EVALUATING A MENTAL DISORDER” (priority 2011, published 2014)", "key": {"[1]": {"tested_on": "En1^+/Otx2 mutant mice", "assay": "Open field locomotor activity after acute lithium treatment", "type": "in vivo, mouse", "conditions": "En1^+/Otx2 mutants vs WT; acute lithium 150 mg/kg; measured immediately after injection for 50 minutes; p<0.0062"}, "[2]": {"tested_on": "En1^+/Otx2 mutant mice", "assay": "Open field locomotor activity after chronic lithium treatment", "type": "in vivo, mouse", "conditions": "for locomotor activity: chronic lithium in food"}}, "note": "Entries after “also recorded” stand apart in the source; their conditions may differ. For at least one compound, name, drawing or mass did not settle the structure.", "data": [{"smiles": "[Li]", "note": "[lithium]", "values": [{"measurement": "locomotor activity", "setting": "[1]", "result": "hyperactivity of Otx2 mutants was reduced; also recorded: significant reduction in locomotor activity"}, {"measurement": "difference in locomotor activity of mutants with high and low activity (inter-individual variability)", "setting": "[2]; Otx2 mutants, chronic lithium treatment", "result": "reduced the difference in locomotor activity of mutants with high and low activity to levels comparable to WT"}, {"measurement": "locomotor activity", "setting": "[2]; highly active WT mice, open field 30 minutes", "result": "in contrast to the highly active WT mice"}, {"measurement": "locomotor activity (hyperactivity)", "setting": "[2]; hyperactive (high activity) En1^+/Otx2 mice, lithium in ground food 5 days 0.2 mg/kg then 10 days 0.4 mg/kg, open field 30 minutes, p<0.05", "result": "reduced the hyperactivity of Otx2 mice to levels comparable to WT; also recorded: significant reduction in locomotor activity"}, {"measurement": "locomotor activity", "setting": "[2]; low active mice, open field 30 minutes", "result": "not significantly affected"}]}]}
